Values of other authors in patent US11535856B2, “Stilbenoid prenyltransferases from plants” (Arkansas State University—Jonesboro, priority 2016, dated 2022).
Like-named read-outs stand apart in the source and are kept apart here.

Test system: non-elicited peanut hairy root cultures
Settings: cited from earlier work

Compound: Oc1ccc(/C=C/c2cc(O)cc(O)c2)cc1 [resveratrol, 3,5,4′-trihydroxy-trans-stilbene]
- reduction of initial resveratrol concentration in culture medium (0.5 h co-incubation): 47%
- reduction of initial resveratrol concentration in culture medium (1 h co-incubation): 97%
